Measurements from patent publication US20260314594A1, “METHODS OF ENHANCING POLLEN VIABILITY OF PLANTS” (ACADEMIA SINICA, priority 2022, published 2026).

Assay: HOPA content of Easter lily stigma exudate (SE)
Set-up: species or system Easter lily (Lilium longiflorum Thunb. cv White Heaven)

SMILES: CC(C)(CO)C(O)C(=O)NCCCC(=O)O (centres unmarked) [HOPA, hopantenic acid]
- HOPA content of 1/10 diluted stigma exudate (1/10 SE (v/v)): about 785 ppm
- HOPA content of stigma exudate (Easter lily stigma exudate, undiluted): about 7,854.8±659.08 ppm
